In patent US12708627B2, “Combination therapy for VAV3 cancer” (Children's Hospital Medical Center, priority 2021, dated 2026):
For at least one compound, name, drawing or mass did not settle the structure.

Tested on: sample #2018-132 Ph-like cells
Test: Ex vivo proliferation of PDX cells, sample #2018-132
Format: cell-based, human
Details: IODVA1 0.5 μM

For `CCN1CCN(Cc2ccc(Nc3ncc(F)c(-c4cc(F)c5nc(C)n(C(C)C)c5c4)n3)nc2)CC1` [abemaciclib], the reduction of proliferation was “did not respond”.
